# From article PMC4795774
# No constants are given. Whether binding was seen depends on the method and setting. In cells and extracts the contact can be indirect. Where a sequence is shown, tags or fusion partners need not be part of it.
# T1: AtNHX6, GFP-tagged (NHX6-GFP) (Arabidopsis thaliana) (UniProt Q8RWU6)
# T1 sequence: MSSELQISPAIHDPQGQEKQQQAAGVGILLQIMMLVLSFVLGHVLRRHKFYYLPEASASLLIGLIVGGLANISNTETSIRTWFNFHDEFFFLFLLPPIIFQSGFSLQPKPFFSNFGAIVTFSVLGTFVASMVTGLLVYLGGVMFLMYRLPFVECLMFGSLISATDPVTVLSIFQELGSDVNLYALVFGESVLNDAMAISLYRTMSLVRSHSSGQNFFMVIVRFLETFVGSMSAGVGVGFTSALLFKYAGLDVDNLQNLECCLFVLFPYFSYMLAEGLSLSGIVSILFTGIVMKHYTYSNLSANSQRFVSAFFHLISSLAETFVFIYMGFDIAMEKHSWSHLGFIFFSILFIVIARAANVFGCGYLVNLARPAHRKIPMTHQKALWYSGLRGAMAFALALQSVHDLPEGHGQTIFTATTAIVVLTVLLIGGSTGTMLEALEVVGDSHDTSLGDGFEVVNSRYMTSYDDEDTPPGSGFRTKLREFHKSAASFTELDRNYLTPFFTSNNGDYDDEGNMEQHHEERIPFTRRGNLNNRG
# T2: AtNHX5, GFP-tagged (NHX5-GFP) (Arabidopsis thaliana) (UniProt Q8S396)
# T2 sequence: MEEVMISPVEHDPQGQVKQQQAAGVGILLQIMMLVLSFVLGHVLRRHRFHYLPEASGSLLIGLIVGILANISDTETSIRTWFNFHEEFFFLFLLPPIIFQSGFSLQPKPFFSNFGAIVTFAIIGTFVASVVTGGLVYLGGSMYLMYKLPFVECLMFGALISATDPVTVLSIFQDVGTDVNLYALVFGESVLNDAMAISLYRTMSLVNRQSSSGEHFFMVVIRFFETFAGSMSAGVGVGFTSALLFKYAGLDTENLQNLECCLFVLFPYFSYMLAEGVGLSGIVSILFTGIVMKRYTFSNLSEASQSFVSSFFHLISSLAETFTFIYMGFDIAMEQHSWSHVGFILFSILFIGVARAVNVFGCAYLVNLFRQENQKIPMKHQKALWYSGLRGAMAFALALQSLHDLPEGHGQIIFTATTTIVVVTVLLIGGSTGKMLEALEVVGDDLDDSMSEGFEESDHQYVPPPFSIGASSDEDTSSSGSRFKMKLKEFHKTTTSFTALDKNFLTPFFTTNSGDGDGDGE
# B1: SYP22 (protein, UniProt P93654 1-268)
# chain: MSFQDLESGRGRSTRKFNGGRQDSTQAVASGIFQINTGVSTFQRLVNTLGTPKDTPELREKLHKTRLHIGQLVKDTSAKLKEASETDHQSGVNPSKKIADAKLARDFQAVLKEFQKAQQTAAERETTYTPFVPQSALPSSYTAGEVDKVPEQRAQLQESKRQELVLLDNEIAFNEAVIEEREQGIQEIHQQIGEVNEIFKDLAVLVNDQGVMIDDIGTHIDNSRAATSQGKSQLVQAAKTQKSNSSLTCLLLVIFGIVLLIVIIVLAA
# B2: SYP51 (protein, UniProt Q9SA23 1-232)
# chain: MASSSDSWMRAYNEALKLSEEINGMISERSSSAVTGPDAQRRASAIRRKITIFGNKLDSLQSLLAEIHGKPISEKEMNRRKDMVGNLRSKANQMANALNMSNFANRDSLLGPDIKPDDSMSRVTGMDNQGIVGYQRQVMREQDEGLEQLEGTVMSTKHIALAVSEELDLQTRLIDDLDYHVDVTDSRLRRVQKSLAVMNKNMRSGCSCMSMLLSVLGIVGLAVVIWMLVKYM
# B3: VTI11 (protein, UniProt Q9SEL6 1-221)
# chain: MSDVFDGYERQYCELSASLSKKCSSAISLDGEQKKQKLSEIKSGLENAEVLIRKMDLEARTLPPNLKSSLLVKLREFKSDLNNFKTEVKRITSGQLNAAARDELLEAGMADTKTASADQRARLMMSTERLGRTTDRVKDSRRTMMETEEIGVSILQDLHGQRQSLLRAHETLHGVDDNIGKSKKILTDMTRRMNKNKWTIGAIIIALIAAIFIILYFKLTK
# Target: T1, AtNHX6, GFP-tagged (NHX6-GFP) (Arabidopsis thaliana)
# Assay: co-IP; 12-day-old seedlings cross-linked with 1 mM dithiobis(succinimidyl propionate) in PBS pH 7.4, 1 hr at RT; membrane fraction (20,000 x g pellet), detergent extracts; NHX5-GFP or NHX6-GFP precipitated with anti-GFP (micro-MACS GFP-tagged protein isolation kit); immunoblot with antibodies against SYP22, VTI11 or SYP51
row,binding,Binder
1,no binding,B1
2,no binding,B2
3,no binding,B3

# Target: T2, AtNHX5, GFP-tagged (NHX5-GFP) (Arabidopsis thaliana)
# Assay: as above
row,binding,Binder
1,no binding,B1
2,no binding,B2
3,no binding,B3
